These are yes or no findings as the source states them, for the method shown. Binding seen in cells or lysates may run through a third protein.
Biological target: cell division cycle 42 (CDC42), endogenous (human (endogenous in T-EnSCs)) (UniProt P60953)
Assay: co-IP; extracts of T-EnSCs, immunoprecipitation with CDC42 antibody or rabbit IgG control (5 μg, overnight 4°C, protein A/G beads), western blot of CDC42, GSK3β and AKT

The chains behind the UniProt entries cited, without tags or fusion partners.
UniProt P60953: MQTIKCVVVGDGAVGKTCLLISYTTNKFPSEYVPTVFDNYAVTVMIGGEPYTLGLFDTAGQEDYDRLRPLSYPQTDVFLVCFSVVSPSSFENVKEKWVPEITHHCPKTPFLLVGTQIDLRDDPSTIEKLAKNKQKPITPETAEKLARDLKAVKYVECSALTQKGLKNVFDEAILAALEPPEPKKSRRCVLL
UniProt P49841: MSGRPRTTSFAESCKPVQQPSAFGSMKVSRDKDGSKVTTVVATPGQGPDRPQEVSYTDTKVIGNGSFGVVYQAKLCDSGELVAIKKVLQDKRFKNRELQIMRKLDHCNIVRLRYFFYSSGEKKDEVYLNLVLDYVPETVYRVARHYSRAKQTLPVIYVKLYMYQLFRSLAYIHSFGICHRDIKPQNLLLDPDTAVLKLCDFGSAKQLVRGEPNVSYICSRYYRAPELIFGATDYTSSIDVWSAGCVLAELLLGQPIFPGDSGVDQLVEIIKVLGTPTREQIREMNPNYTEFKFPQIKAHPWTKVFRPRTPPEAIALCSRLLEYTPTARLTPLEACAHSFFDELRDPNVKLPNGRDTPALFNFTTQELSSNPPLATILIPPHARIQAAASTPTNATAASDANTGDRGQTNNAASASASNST

GSK3β, endogenous (from UniProt P49841 1-420)
binding: no binding

Source: article PMC11630066
